Test system: cardiomyocytes prepared by inducing differentiation of a human iPS cell line (253G1)

Cc1cccc(CCN2CCC(C(=O)c3ccc(NS(C)(=O)=O)cc3)CC2)n1 [E-4031]
detected: expected drug response | expected drug response (EAD arrhythmia) | expected drug response (prolongation of the duration of the Ca^2+ waveform or EAD arrhythmia)

From patent US11726083B2, “Method for testing drug response of cardiomyocytes” (Myoridge Co. Ltd., priority 2017, dated 2023)
